{
  "sequences": {"note": "Sequences of proteins named here, by UniProt entry; tags and fusion partners are left off.", "UniProt P27695, whole entry, looked up": "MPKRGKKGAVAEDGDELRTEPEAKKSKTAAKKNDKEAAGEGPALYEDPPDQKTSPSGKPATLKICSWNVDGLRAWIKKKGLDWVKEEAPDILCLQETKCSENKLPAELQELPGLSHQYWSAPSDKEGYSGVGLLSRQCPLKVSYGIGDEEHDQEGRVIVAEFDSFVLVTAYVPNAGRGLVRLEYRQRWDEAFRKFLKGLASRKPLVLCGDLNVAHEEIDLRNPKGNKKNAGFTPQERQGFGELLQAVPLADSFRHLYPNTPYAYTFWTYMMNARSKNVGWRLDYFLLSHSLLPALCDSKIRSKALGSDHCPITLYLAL"},
  "source": "PubChem BioAssay AID2517",
  "about": "(National Center for Advancing Translational Sciences (NCATS), 2010)",
  "note": "About 1,200 (0.34%) of roughly 350,000 compounds were called active. The shares of active, inactive and inconclusive entries below differ from those in the screen. Calls come from the whole dose curve; as a rule, active = well fitted inhibition curve with a large enough effect; inconclusive = small, poorly fitted or top-dose-only effect; inactive = no such curve, though single readings can be large or run the other way. Potencies beside an inconclusive call are fits to weak or partial responses and may not hold up. Potency is the fitted concentration of half-maximal effect.",
  "data": [
    {"biological_target": "DNA repair nuclease/redox regulator APEX1 (Homo sapiens) (UniProt P27695)", "assay": "qHTS Assay for Inhibitors of the Human Apurinic/apyrimidinic Endonuclease 1 (APE1); note: nearly all actives have a fitted effect of over 55% in size", "details": "recombinant APE1, TAMRA/BHQ-2 abasic DNA cleavage fluorescence; series mostly up to 65.8 µM", "how_it_was_run": "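Endonuclease cleavage of a quenched abasic-site DNA duplex (50 nM) by APE1 (0.75 nM) was tracked by TAMRA dequenching. Compounds were preincubated with enzyme 15 min at room temperature; data normalized to buffer-only and DMSO wells plus NSC13755 control.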", "values": [
      {"smiles": "Cc1nc2sc(C(c3ccccc3)N3CCN(CCO)CC3)c(O)n2n1", "note": "(stereo unspecified)", "Potency": "inconclusive: 0.126 µM [inhibitor, full curve]"},
      {"smiles": "CC1CCN(S(=O)(=O)c2cc([N+](=O)[O-])ccc2Cl)CC1", "Potency": "inconclusive: 15.8 µM [inhibitor, partial curve, poor fit]"},
      {"smiles": "Cc1ccc(OCCN2CCN(C(=O)CCC(=O)Nc3nnc(CC(C)C)s3)CC2)cc1", "Potency": "inactive"},
      {"smiles": "Cc1ccc(C(=O)CC(SCC(=O)O)c2ccc([N+](=O)[O-])cc2)cc1", "note": "(stereo unspecified)", "Potency": "inactive"},
      {"smiles": "CC(C)(C)c1ccc(C2(C)NC(=O)N(CC(=O)NCc3cccs3)C2=O)cc1", "note": "(stereo unspecified)", "Potency": "inconclusive: 3.55 µM [inhibitor, partial curve, poor fit]"},
      {"smiles": "C=CC[C@H]1CC(Cc2ccccc2)=C[C@H](CC=C)N1", "Potency": "inconclusive: 0.355 µM [inhibitor, full curve, poor fit]"},
      {"smiles": "Cn1c(-c2ccccc2)c(O)c(=O)c2ccccc21", "Potency": "inconclusive: 3.98 µM [inhibitor, single point]"},
      {"smiles": "Cc1ccc(S(=O)(=O)Nc2cc(=O)[nH]c(SCC(=O)Nc3ccccc3C(F)(F)F)n2)cc1", "Potency": "inactive"},
      {"smiles": "CCOCCCNC(=O)C1CCC(CNS(=O)(=O)c2ccc(OC)cc2)CC1", "note": "(stereo unspecified)", "Potency": "inconclusive: 17.8 µM [inhibitor, single point]"},
      {"smiles": "Cc1cc2cc(CN(Cc3ccco3)S(=O)(=O)c3c(C)ccc4nsnc34)c(=O)[nH]c2cc1C", "Potency": "inconclusive: 7.08 µM [inhibitor, partial curve]"},
      {"smiles": "N#CCSc1nc2ccccc2o1", "Potency": "inconclusive: 5.01 µM [inhibitor, full curve, poor fit]"},
      {"smiles": "CC(=O)Nc1ccc(NC(=O)c2ccco2)cc1", "Potency": "inactive"},
      {"smiles": "Cc1ccc(C(=O)O)cc1-n1c(C)cc(C=O)c1C", "Potency": "inconclusive: 35.5 µM [inhibitor, single point]"},
      {"smiles": "CC1CCCC(C)N1/N=C/c1cc(Br)c(O)c(Br)c1", "note": "(stereo unspecified)", "Potency": "inconclusive: 0.316 µM [inhibitor, full curve]"},
      {"smiles": "CCN(CC(=O)Nc1ccc(C(C)=O)cc1)CC(=O)Nc1ccccc1C(F)(F)F", "Potency": "inconclusive: 31.6 µM [inhibitor, partial curve, poor fit]"},
      {"smiles": "COc1ccc2c(c1)C(=O)N(CCc1ccc(S(=O)(=O)NC(=O)NC3CCCCC3)cc1)C(=O)C2(C)C", "Potency": "inconclusive: 8.91 µM [inhibitor, single point]"},
      {"smiles": "COc1cccc(C2C(C(C)=O)=C(O)C(=O)N2CCc2c[nH]c3ccccc23)c1", "note": "(stereo unspecified)", "Potency": "inconclusive: 12.6 µM [inhibitor, partial curve, poor fit]"},
      {"smiles": "NC(=O)C1CCN(c2nc(-c3ccc4c(c3)OCO4)cs2)CC1", "Potency": "inactive"},
      {"smiles": "CCC(C)NC(=O)Cn1c(=O)n(-c2ccc(OC)cc2)c(=O)c2ccc(C(=O)NCc3ccc(C)cc3)cc21", "note": "(stereo unspecified)", "Potency": "inconclusive: 28.2 µM [inhibitor, partial curve, poor fit]"},
      {"smiles": "COc1ccc(NC(=S)N(Cc2ccc(N(C)C)cc2)Cc2ccco2)cc1", "Potency": "inconclusive: 0.316 µM [inhibitor, full curve, poor fit]"},
      {"smiles": "Cc1onc(-c2c(Cl)cccc2Cl)c1C(=O)NC1C(=O)N2C1SC(C)(C)C2C(=O)O", "note": "(stereo unspecified)", "Potency": "inconclusive: 44.7 µM [inhibitor, single point]"},
      {"smiles": "COc1cc([C@H]2c3[nH]c4ccccc4c3C[C@H]3C(=O)N4[C@@H](c5cc(OC)c(OC)c(OC)c5)c5[nH]c6ccccc6c5C[C@H]4C(=O)N23)cc(OC)c1OC", "Potency": "inactive"},
      {"smiles": "Cc1cc(=O)c(C(=O)O)cn1Nc1ccc(F)cc1", "Potency": "inconclusive: 2.82 µM [inhibitor, single point]"},
      {"smiles": "CCN(C(=O)COC(=O)c1cccc(NS(=O)(=O)c2ccc(F)c(F)c2)c1)C1CCS(=O)(=O)C1", "note": "(stereo unspecified)", "Potency": "inconclusive: 5.62 µM [inhibitor, full curve, poor fit]"},
      {"smiles": "COc1ccc(C(=O)COc2ccc(C)cc2NC(C)=O)cc1", "Potency": "inconclusive: 3.16 µM [inhibitor, full curve, poor fit]"},
      {"smiles": "O=C(NCc1ccco1)C1CCCN1C(=O)Nc1ccccc1Cl", "note": "(stereo unspecified)", "Potency": "inconclusive: 0.0126 µM [inhibitor, full curve, poor fit]"},
      {"smiles": "O=C(O)c1ccc(-n2[nH]c3c(c2=O)CCCC3)cc1", "Potency": "inconclusive: 31.6 µM [inhibitor, single point]"},
      {"smiles": "O=C(CCN1C(=O)S/C(=C/c2ccc(Cl)cc2)C1=O)N1CCOCC1", "Potency": "inconclusive: 25.1 µM [inhibitor, single point]"},
      {"smiles": "CC(=O)[C@@H]1[C@@H]2C(=O)N(Cc3ccccc3)C(=O)[C@@H]2C2c3ccccc3C=CN21", "note": "(stereo partly specified)", "Potency": "inconclusive: 14.1 µM [inhibitor, partial curve, poor fit]"},
      {"smiles": "Cc1nnc(SCC(=O)Nc2sccc2C#N)n1Cc1ccccc1", "Potency": "inconclusive: 39.8 µM [inhibitor, single point]"},
      {"smiles": "COc1ccc2cc(C(=O)NCc3ccccc3)c(=Nc3ccc(C(=O)O)cc3)oc2c1", "Potency": "inactive"},
      {"smiles": "Cn1c2c(c(=O)n(C)c1=O)C(NC(=O)c1ccco1)(C(F)(F)F)C(=O)N2", "note": "(stereo unspecified)", "Potency": "inconclusive: 35.5 µM [inhibitor, single point]"},
      {"smiles": "CCN(CC(=O)NC1CCS(=O)(=O)C1)S(=O)(=O)c1ccc(F)cc1", "note": "(stereo unspecified)", "Potency": "inactive"},
      {"smiles": "COc1ccc(NC(=O)CSc2nnc(Cc3cccn3C)n2-c2ccc(F)cc2)cc1OC", "Potency": "inconclusive: 11.2 µM [inhibitor, partial curve, poor fit]"},
      {"smiles": "COc1ccc(CCNC(=O)Cn2cc(C(F)(F)F)cc(Cl)c2=O)cc1OC", "Potency": "inconclusive: 44.7 µM [inhibitor, single point]"},
      {"smiles": "CCN(CC)C(=O)c1cn(CCC#N)nc1-c1ccc(F)cc1", "Potency": "inconclusive: 0.199 µM [inhibitor, full curve, poor fit]"},
      {"smiles": "CCOC(=O)Cc1csc(NC(=O)Cc2cccs2)n1", "Potency": "inconclusive: 35.5 µM [inhibitor, single point]"},
      {"smiles": "O=C(COC(=O)c1ccc(S(=O)(=O)N2CCCC2)cc1)NCc1ccco1", "Potency": "inconclusive: 39.8 µM [inhibitor, single point]"},
      {"smiles": "Cc1cc(C)c(Nc2cc(S(=O)(=O)O)c(N)c3c2C(=O)c2ccccc2C3=O)c(C)c1", "Potency": "inconclusive: 22.4 µM [inhibitor, single point]"},
      {"smiles": "Cc1cc(NC(=O)CSc2ccc3nnc(CCNS(=O)(=O)c4ccccc4)n3n2)no1", "Potency": "inconclusive: 0.316 µM [inhibitor, full curve, poor fit]"},
      {"smiles": "O=C(COC(=O)c1ccc[nH]c1=O)Nc1cc(S(=O)(=O)N2CCCCC2)ccc1Cl", "Potency": "inconclusive: 31.6 µM [inhibitor, partial curve, poor fit]"},
      {"smiles": "Cc1ccc2nc(NCCN)c3ncc(C)n3c2c1", "Potency": "inconclusive: 12.6 µM [inhibitor, partial curve, poor fit]"},
      {"smiles": "Cc1cc(NC(=O)CSCCc2ccncc2)no1", "Potency": "inconclusive: 7.08 µM [inhibitor, single point]"},
      {"smiles": "CC(=O)Oc1cc(OC(C)=O)c2c(=O)cc(-c3ccc(OC(C)=O)c(OC(C)=O)c3)oc2c1", "Potency": "inconclusive: 10 µM [inhibitor, partial curve, poor fit]"},
      {"smiles": "CC#CCN1c2ccccc2[C@]23C[C@@H](C(=O)OC)N(C(=O)OCC)C2=NC(C(=O)OC)=C(C(=O)OC)[C@H]13", "Potency": "inconclusive: 17.8 µM [inhibitor, partial curve, poor fit]"},
      {"smiles": "COC(=O)CC1COc2ccccc2N1C(=O)c1cccc(Cl)c1", "note": "(stereo unspecified)", "Potency": "inconclusive: 44.7 µM [inhibitor, single point]"},
      {"smiles": "COc1ccc(NC(=S)N(CCc2nc3cc(C)c(C)cc3[nH]2)Cc2cccnc2)cc1", "Potency": "inconclusive: 0.0056 µM [inhibitor, full curve, poor fit]"},
      {"smiles": "C[C@@]1([C@@H](NC(=O)c2cccs2)c2ccc(-c3ccccc3)cc2)C[C@H]1C1CCCCC1", "Potency": "inconclusive: 6.31 µM [inhibitor, single point]"},
      {"smiles": "CCc1ccccc1NC(=S)N(CCN1CCOCC1)C1CCN(C(C)=O)CC1", "Potency": "inconclusive: 10 µM [inhibitor, single point]"},
      {"smiles": "CN(C)CCN1CCc2ccccc21", "Potency": "inconclusive: 44.7 µM [inhibitor, single point]"},
      {"smiles": "CCC1SC2=NCN(c3ccccc3)CN2C1=O", "note": "(stereo unspecified)", "Potency": "inconclusive: 8.91 µM [inhibitor, single point]"},
      {"smiles": "CN1C(=O)/C(=C/c2cc(N=Nc3ccccc3)ccc2O)SC1=S", "Potency": "inconclusive: 5.62 µM [inhibitor, single point]"},
      {"smiles": "O=C(O)CCCCn1c(SCc2cc(=O)n3cc(Cl)ccc3n2)nc2ccsc2c1=O", "Potency": "inactive"},
      {"smiles": "O=C(COC(=O)c1ccc(Cl)nc1)Nc1ccc2c(c1)OCO2", "Potency": "inconclusive: 44.7 µM [inhibitor, single point]"},
      {"smiles": "COC(CNc1ccc([N+](=O)[O-])c(NCC(OC)OC)c1C#N)OC", "Potency": "inconclusive: 7.94 µM [inhibitor, single point]"},
      {"smiles": "CCNc1ccc([N+](=O)[O-])cc1", "Potency": "inconclusive: 7.08 µM [inhibitor, single point]"},
      {"smiles": "Cc1cc(C(C#N)c2ccc(Cl)cc2)c(Cl)cc1NC(=O)c1cc(I)cc(I)c1O", "note": "(stereo unspecified)", "Potency": "inactive"},
      {"smiles": "CCOC(=O)COc1c(Br)cc(C2NC(=O)NC(C)=C2C(C)=O)cc1OC", "note": "(stereo unspecified)", "Potency": "inactive"},
      {"smiles": "COc1ccc(/C=C/c2nc3ccccc3n2Cc2ccc(OC)c(OC)c2)cc1", "Potency": "inconclusive: 0.398 µM [inhibitor, full curve, poor fit]"},
      {"smiles": "CC(NC(=O)Nc1ccc(Cl)cc1)C1CCCO1", "note": "(stereo unspecified)", "Potency": "inconclusive: 1.12 µM [inhibitor, full curve, poor fit]"},
      {"smiles": "Oc1ccc(N=Cc2c(O)ccc3ccccc23)cc1", "Potency": "inconclusive: 28.2 µM [inhibitor, single point]"}
    ]}
  ]
}
